This is one part of the list. These are further read-outs of the screen, such as a control signal, another cell line or another target. No call is given for them. The list favours compounds with an active or inconclusive main result. Potencies come from curve fits of mixed quality, noted in brackets.
Assay: qHTS Assay for Lipid Storage Modulators in Drosophila S3 Cells;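 as to cell number change: cells counted by Cell Tracker Red CMTPX staining in the red channel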
Details: BODIPY lipid droplet fluorescence, 18-24 h; for cell number change: measured here: cell count max response, cells fed with added oleic acid
Method in brief: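 Drosophila S3 cells got compounds at several concentrations plus oleic acid (400 uM solution). Laser-scanning cytometry with 488 nm excitation read lipid droplets at 500-530 nm and cells at 575-640 nm. Percent activity was relative to 20 uM Triacsin C.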

[1] = measured here: lipid fluorescence (Fed channel) AC50, cells fed with added oleic acid
[2] = measured here: cell number channel AC50, cells fed with added oleic acid

CC1(C)CSC(=NCCc2ccccc2)N1C(=O)c1ccc(C#N)cc1
AC50 [1]: 2.06 µM [falling, partial curve]

c1ccc(C2CN3CCSC3=N2)cc1 (stereo not given)
cell number change: -20.6% | AC50 [1]: 29.1 µM [falling, partial curve, poor fit]

CCOC(=O)C1=C(C)NC(=S)NC1c1cccs1 (stereo not given)
cell number change: 17.2% | AC50 [1]: 0.461 µM [falling, full curve]

Cc1ccc(S(=O)(=O)NN/C(=N/S(=O)(=O)c2ccccc2)c2ccccc2)cc1
AC50 [1]: 0.517 µM [falling, partial curve]

O=C(CSC1=Nc2ccccc2C2CC=NN12)Nc1ccc2c(c1)OCO2 (stereo not given)
cell number change: 57.9% | AC50 [1]: 2.59 µM [rising, full curve]

CC(C)(Oc1ccc(Cl)cc1)C(=O)NCC(c1ccco1)N1CCCCC1 (stereo not given)
cell number change: -14.1%

N#CC1=C(Nc2ccccc2)SC=C(c2ccc(Br)cc2)N=C1N1CCOCC1
cell number change: -6%

O=C(CCCCn1c(=O)[nH]c2ccsc2c1=O)NCCc1ccccc1
cell number change: -13.4% | AC50 [1]: 2.06 µM [falling, full curve, poor fit]

O=C(O)CCC(=O)N1CCC(C(=O)c2cccc(Cl)c2)CC1
cell number change: -5.69%

Cc1cc(C(=O)OCC(=O)c2ccc3c(c2)NC(=O)CO3)c2ccccc2n1
cell number change: 39.7% | AC50 [2]: 20.6 µM [rising, partial curve, poor fit]

COc1c(C)cc(S(=O)(=O)NCc2ccccn2)c(C)c1C
cell number change: 20.1% | AC50 [1]: 29.1 µM [rising, single point]

c1ccc(CNc2ncnc3nc[nH]c23)nc1
AC50 [2]: 1.84 µM [rising, partial curve]

COc1ccccc1NC(=O)CSC1CC(=O)N(c2ccc3c(c2)OCO3)C1=O (stereo not given)
cell number change: -2.89% | AC50 [2]: 1.3 µM [rising, partial curve] | AC50 [1]: 29.1 µM [rising, single point]

COc1ccc(-c2nnn(Cc3nc(N)nc(N4CCCCC4)n3)n2)cc1
AC50 [1]: 6.51 µM [rising, partial curve, poor fit]

Cc1ccn2c(C(=O)N/N=C/c3ccc(CNC(=O)C(=O)Nc4ccc(C)c(C)c4)o3)c(C)nc2c1
cell number change: 15.6% | AC50 [2]: 3.26 µM [rising, partial curve] | AC50 [1]: 1.46 µM [rising, full curve, poor fit]

CCCC(=O)N(CCN(Cc1ccccc1)C(=O)CCC)Cc1ccccc1
cell number change: 6.5% | AC50 [1]: 0.103 µM [falling, full curve, poor fit]

C=C(C)c1cccc(C(C)(C)NC(=O)NCc2ccncc2)c1
cell number change: -21.9% | AC50 [1]: 14.6 µM [falling, partial curve, poor fit]

O=C1/C(=C2/NCCN2C2CC(=O)N(c3ccccc3)C2=O)CC/C1=C\c1ccccc1 (stereo not given)
cell number change: -18.8% | AC50 [1]: 0.92 µM [falling, full curve, poor fit]

CN(C)S(=O)(=O)N(CC(=O)Nc1ccc(S(=O)(=O)N2CCCC2)cc1)c1ccccc1
cell number change: -54.4% | AC50 [2]: 25.9 µM [falling, partial curve] | AC50 [1]: 0.58 µM [falling, single point]

CCOc1ccc(CCNC(=O)c2ccc3ccccc3n2)cc1OCC
AC50 [1]: 29.1 µM [falling, single point]

Cc1cccc(OCc2n[nH]c(=S)n2C2CCCCC2)c1
cell number change: -34.4% | AC50 [2]: 20.6 µM [falling, single point] | AC50 [1]: 18.4 µM [falling, single point]

O=C1CSc2ccccc2N1Cc1ccc(F)cc1
cell number change: 7.78% | AC50 [1]: 0.00461 µM [rising, full curve, poor fit]

Cc1ccc(NCC(=O)Nc2ccc(Br)cc2)cc1F
cell number change: -35.2% | AC50 [2]: 11.6 µM [falling, partial curve] | AC50 [1]: 13 µM [falling, single point]

Cc1ccc(CN2CCNC2=O)cc1
cell number change: -45.1% | AC50 [2]: 29.1 µM [falling, single point] | AC50 [1]: 1.3 µM [falling, partial curve, poor fit]

CCOC(=O)N1CCN(C2=Nc3cccc4cccc2c34)CC1
cell number change: -8.84%

Cn1ncc2c(NNC(=O)c3ccc(O)cc3)ncnc21
cell number change: -23.7% | AC50 [1]: 20.6 µM [falling, partial curve, poor fit]

O=C(CCCOc1ccccc1)N1CCc2ccccc2C1
AC50 [2]: 6.51 µM [falling, single point]

Cc1nn(CC(=O)N2CCOCC2)c(C)c1[N+](=O)[O-]
cell number change: 8.44% | AC50 [1]: 0.103 µM [rising, full curve, poor fit]

CCC1Sc2ccc(S(=O)(=O)CCC(=O)N3CCc4ccccc43)cc2NC1=O (stereo not given)
cell number change: -1.47% | AC50 [1]: 29.1 µM [rising, single point]

CNC(=S)N1N=C(c2ccc(C)cc2)CC1c1ccc(Cl)cc1 (stereo not given)
AC50 [2]: 0.58 µM [rising, full curve] | AC50 [1]: 0.82 µM [rising, partial curve]

CCN1CCN(c2ccc(S(=O)(=O)N3CCOCC3)cc2NC(=O)CCSC)CC1
cell number change: 1.65% | AC50 [2]: 0.00461 µM [falling, full curve, poor fit] | AC50 [1]: 1.84 µM [falling, partial curve]

Cc1nn(C(C)C(=O)O)c2ccccc12 (stereo not given)
cell number change: -118% | AC50 [2]: 25.9 µM [falling, partial curve] | AC50 [1]: 23.1 µM [falling, partial curve]

O=C1CN(C(=O)CC2C(=O)NCCN2Cc2ccccc2C(F)(F)F)CCN1 (stereo not given)
cell number change: 23.5%

Oc1ccc(Oc2ccc3c(C(F)(F)F)cc(C(F)(F)F)nc3n2)cc1
cell number change: -11.3% | AC50 [1]: 29.1 µM [falling, single point]

N=C1C(c2nc3ccccc3s2)=C(O)CN1NC(=O)c1c[nH]c2ccccc12
cell number change: -11.5% | AC50 [1]: 29.1 µM [falling, single point]

COc1ccc(Cl)cc1NC(=O)CN(C)C(=O)c1ccc2c(c1)CC(c1ccccc1)OC2=O (stereo not given)
cell number change: -7.34% | AC50 [2]: 1.46 µM [rising, full curve] | AC50 [1]: 6.51 µM [rising, single point]

O=C(c1ccc([N+](=O)[O-])c(CS(=O)(=O)c2ccc(Cl)cc2)c1)N1CCCCC1
cell number change: 20.6% | AC50 [2]: 4.11 µM [rising, partial curve, poor fit]

S=C(NCCN1CCOCC1)N/N=C/c1ccccc1
cell number change: 47.5% | AC50 [2]: 9.2 µM [rising, partial curve, poor fit]

COc1ccc(C2CC(=O)CC(=O)C2n2cncn2)cc1 (stereo not given)
cell number change: 4.04%

COc1ccc(-c2cc(C(=O)N3CCN(c4ccccn4)CC3)c3ccccc3n2)cc1
cell number change: -28.6%

COc1ccc(CNC(=O)COC(=O)/C=C/c2ccc(Cl)cc2)cc1
cell number change: -26.1% | AC50 [1]: 20.6 µM [falling, single point]

Cc1onc(-c2ccccc2Cl)c1C(=O)N(Cc1nc(-c2ccccc2)no1)C1CCCCC1
cell number change: 108% | AC50 [2]: 7.31 µM [rising, partial curve] | AC50 [1]: 25.9 µM [rising, single point]

Cc1ccc(C)c(N2CCN(S(=O)(=O)c3cc4c(cc3C)NC(=O)CO4)CC2)c1
cell number change: -1.44% | AC50 [1]: 0.00651 µM [falling, full curve, poor fit]

CCc1c(C)nc2cc(-c3ccc(OC)c(OC)c3)nn2c1N1CCCC1
cell number change: -42.1% | AC50 [2]: 9.2 µM [falling, partial curve, poor fit] | AC50 [1]: 16.4 µM [falling, partial curve]

CCN(CCCNC(=O)CN1C(=O)COc2ccccc21)c1ccccc1
cell number change: 9.2% | AC50 [1]: 29.1 µM [falling, single point]

COC(=O)c1ccc(SCC(=O)NC2CCCCC2)c([N+](=O)[O-])c1
cell number change: 11% | AC50 [1]: 0.461 µM [rising, full curve, poor fit]

O=C(c1c(F)cccc1F)N(Cc1cccs1)C1CCCC1
AC50 [1]: 0.00461 µM [rising, full curve, poor fit]

CCn1cc(C(=O)NCCC(C)C)c(=O)c2cc(F)c(N3CCN(C(=O)c4ccco4)CC3)cc21
cell number change: -23.5% | AC50 [2]: 0.651 µM [falling, full curve, poor fit] | AC50 [1]: 6.51 µM [falling, partial curve]

Cc1cccc(NC(=O)C2CCN(C(=O)NCc3ccccc3)CC2)c1C
cell number change: 25.2% | AC50 [1]: 29.1 µM [rising, single point]

Cc1nc2cc(NC(=O)N(C)c3ccc4ccccc4c3)ccc2o1
cell number change: 30.2% | AC50 [2]: 3.66 µM [rising, single point]

O=C1NCCCc2c1oc1cc(Br)c(O)c(Br)c21
cell number change: -42.4% | AC50 [2]: 5.17 µM [falling, full curve]

O=C(Nc1cccc(C(F)(F)F)c1)Nc1ccc(N2CCCC2)c(S(=O)(=O)Nc2ccccc2Cl)c1
cell number change: -88.5% | AC50 [2]: 23.1 µM [falling, partial curve] | AC50 [1]: 5.17 µM [falling, full curve]

O=C(NCc1ccco1)C1CCCN1C(=O)NCc1ccccc1 (stereo not given)
cell number change: -4.95% | AC50 [1]: 29.1 µM [rising, single point]

CC(C)NS(=O)(=O)c1ccc(NC(=O)C(C)OC(=O)CCC(=O)c2cccs2)cc1 (stereo not given)
cell number change: -30.9% | AC50 [2]: 29.1 µM [falling, single point] | AC50 [1]: 29.1 µM [falling, single point]

CC(C)C[C@H](NC(=O)N1CCn2c1nc1ccccc12)C(=O)NCc1ccc2c(c1)OCO2
cell number change: -12.2% | AC50 [1]: 29.1 µM [falling, single point]

O=c1cc(CN2CCN(S(=O)(=O)c3ccccc3)CC2)nc2sccn12
cell number change: -17.8% | AC50 [1]: 25.9 µM [falling, partial curve, poor fit]

CN1CCN(c2cc3c(c4c2[nH]c2ccccc24)C(=O)CC(C)(C)C3)CC1
cell number change: -36.1% | AC50 [2]: 29.1 µM [falling, partial curve] | AC50 [1]: 5.8 µM [falling, partial curve, poor fit]
